This experiment concerns the target T1, Neisseria gonorrhoeae class Ia ribonucleotide reductase NrdA (α) subunit (Neisseria gonorrhoeae).
T1 sequence: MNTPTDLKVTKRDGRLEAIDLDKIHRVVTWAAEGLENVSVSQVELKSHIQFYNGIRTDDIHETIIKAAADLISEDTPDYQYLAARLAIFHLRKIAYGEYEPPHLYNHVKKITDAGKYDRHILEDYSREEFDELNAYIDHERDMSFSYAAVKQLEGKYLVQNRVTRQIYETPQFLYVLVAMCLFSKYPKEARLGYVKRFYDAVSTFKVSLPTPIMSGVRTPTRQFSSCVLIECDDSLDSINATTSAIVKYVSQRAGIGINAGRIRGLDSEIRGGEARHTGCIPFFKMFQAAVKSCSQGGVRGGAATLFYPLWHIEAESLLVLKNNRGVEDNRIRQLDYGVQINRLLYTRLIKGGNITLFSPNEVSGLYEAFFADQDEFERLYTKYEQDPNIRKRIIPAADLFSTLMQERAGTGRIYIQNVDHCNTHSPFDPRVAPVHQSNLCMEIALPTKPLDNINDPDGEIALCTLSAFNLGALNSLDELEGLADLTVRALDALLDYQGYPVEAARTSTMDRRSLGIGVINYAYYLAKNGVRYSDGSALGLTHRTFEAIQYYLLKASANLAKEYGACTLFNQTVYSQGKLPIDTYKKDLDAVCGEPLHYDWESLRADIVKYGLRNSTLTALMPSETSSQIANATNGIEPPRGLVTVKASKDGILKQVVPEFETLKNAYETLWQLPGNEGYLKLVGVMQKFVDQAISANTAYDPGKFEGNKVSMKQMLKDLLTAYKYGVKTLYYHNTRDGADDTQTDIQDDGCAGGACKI
As to the kind of experiment: cryo-EM structure; α and β mixed 1:1.5 (α:β) with 1 mM dATP and 1 mM CDP on ice in 50 mM HEPES pH 7.6, 15 mM MgCl2, 1 mM EDTA; chameleon 54 ms dispense-to-plunge, 6 mg/mL protein (4.3 Å); also Vitrobot grid, 0.5 mg/mL (5.6 Å); dATP-inactivating conditions; both purified.

Results are given in words; binding and its absence hold for the method and conditions named. Some binding calls cover weakened binding; strength is not graded here.

B1: Neisseria gonorrhoeae class Ia ribonucleotide reductase NrdB (β) subunit, hydroxyurea-inactivated (met-β2) (enzyme, UniProt A0ACH0F974 1-377, looked up)
chain: MSYSTFPKTKNDALKEPMFFGQPVNVARYDQQKYEVFEKLIEKQLSFFWRPEEIDVSRDRIDYANLPEHEKHIFISNLKYQTLLDSIQGRSPNVALLPLVSIPELETWVETWSFSETIHSRSYTHIIRNIVNDPSVVFDDIVENEYITARAEDIACYYDDLIEYTQYYNLLGEGVHNVGGKPVTVSLRGLKKKLYLCLMCVNVLEAIRFYVSFACSFAFAERELMEGNAKIIKLIARDEALHLTGTQHMLNLMRSGVDDPEMAEIAAELQDECFQLFKKAAEQEKEWAAYLFKDGSMIGLNKEILSQYVEYITNLRMQAVGLPAGFEGANQNPIPWINAWLSSDNVQVAPQEVEISSYLIGQIDSEVNTDDLGDFEL
notes: N. gonorrhoeae class Ia RNR radical-generating subunit NrdB (β); 377 residues as printed (model holds four residues of the histidine tag, residues 1-346 and 374-376 of 377); expected MW 43253 Da; met-β2: diiron cluster reconstituted (1.8 +/- 0.3 iron per monomer), tyrosyl radical quenched with hydroxyurea; also called NgRNR β; His6-TEV-NgRNR β; source: E. coli T7 Express, pET30a(+), purified …
For the molecule B1, the binding result is recorded as “binds”.

B2: Neisseria gonorrhoeae class Ia ribonucleotide reductase NrdA (α) subunit (enzyme, UniProt A0ACH0F9A0 1-759)
chain: T1 sequence
As to B2, the binding entry is “binds”.

For the origin of these results see paper PMC8994553, “Effects of chameleon dispense-to-plunge speed on particle concentration, complex formation, and final resolution: A case study using the Neisseria gonorrhoeae ribonucleotide reductase inactive complex” (Journal of structural biology, 2021).
